Measured values: patent US9150617B2, “Immunoregulatory peptides and methods of use” (13 Therapeutics, Inc., priority 2009, dated 2015)
“Also recorded” adds a separate entry of the source. Part of at least one peptide drawing is inferred or uncertain, most often the ends. Ends that are not written are not given here.

Legend:
[1] = system: toll-like receptor-dependent signaling; experiment: Cytokine secretion in response to TLR activation; assay type: cell-based; details: in vitro
Description: RAW264.7 cells were plated at 1.5×10^5 cells/well −3×10^5 cells/well in 48-well plates. After 24 hours, the cells were incubated with peptides at various concentrations at room temperature in triplicate either before, simultaneous with, or after activation with various PAMPs for 18 hours. Cell-free supernatants were analyzed for cytokines by ELISA, in quadruplicate. RAW264.7 cells were stimulated with either CpG-ODN (1 μg/ml or 1.25 μg/ml), LPS (about 1 ng/ml), Poly (I:C) (about 10 μg/ml), flagellin (about 5 ng/ml), or zymosan (about 10 μg/ml). Dose response curves were done with each PAMP to determine optimal stimulation concentration. For CpG-ODN stimulation, cells were incubated for 4 hours at 37° C., supernatants collected, and TNF-α measured by ELISA. Any cytokine involved in inflammatory disease mediated toll receptor signaling can be measured using similar assays.

[2] = system: toll-like receptor-dependent signaling; details: U.S. Pat. No. 7,192,930 and US2008/0039395; cited from earlier work
[3] = system: middle ear inflammation in BALB/c mice; experiment: Topical (ear drop) administration in pre-clinical AOM model, middle ear histology; assay type: in vivo, mouse; details: histology at 72 h
[4] = system: hearing impairment in BALB/c mice; experiment: Topical administration in mouse model of AOM, hearing by auditory brainstem response (ABR); assay type: in vivo
[5] = system: middle ear inflammation in BALB/c mice; experiment: Middle ear inflammation, heat-inactivated S. pneumoniae plus peptide injected into the middle ear; assay type: in vivo, mouse
Description: Induction of otitis media: BALB/c (Bagg albino) mice, about 8-12 weeks of age, are anesthetized with a subcutaneous injection of xylazine & ketamine (about 0.1 mg/30 gm body weight) and their ears examined under the operating microscope to assure they are free of infection or perforation. One group of animals is injected with PBS (Phospho-buffered saline) in one ear and with about 10 μM of a peptide of Table 1 in the opposite ear, to determine the effect of peptide without added bacteria. A second group of animals receive about 5.0 μl of PBS plus heat-inactivated S. pneumoniae (about 10^9 CFU/ml) in one ear and about 5.0 μl of peptide (about 10 μM) plus heat-inactivated S. pneumoniae (about 10^9 CFU/ml) in the opposite ear. Injections are done through the tympanic membrane. Animals are killed about 3 days after bacterial injection and tissue is histologically processed to assess middle ear disease. Inflammation is quantified by measuring 1) area of fluid present in the middle ear; 2) number of cells in middle ear fluid; and 3) thickness of the tympanic membrane (TM) taken at a point away from the injection site. Data are obtained from mice (n=18) injected with PBS alone for each of the histological parameters measured, to serve as a control group.
At the end of the experimental treatment, mice are killed and tissues collected for histology. Mice are overdosed on anesthetic and perfused intracardially with about 1.0 ml of saline, followed by about 20 ml of fixative (about 1.5% paraformaldehyde, about 3% glutaraldehyde in about 0.1 M phosphate buffer). The middle ears are left intact and connected to each other by the skull base so both ears are processed together for histology and sectioning. This enables all histologic embedding, sectioning, staining, and analysis to be done on the two sides simultaneously to reduce any impact of processing variables on the subsequent quantitative analyses. Middle ears are decalcified, embedded in glycol methacrylate plastic, sectioned at about 5 um, mounted serially on glass slides, stained, and coverslipped.
Three consecutive sections at the level of the umbo and promontory are selected for measures of 1) area of fluid present in the middle ear; 2) number of cells in middle ear fluid; and 3) thickness of the tympanic membrane. Each measurement is taken on the three sequential sections per specimen.
To determine the effect of peptide without added bacteria, animals are injected in one ear with PBS alone, and the other ear with about 10 μM peptide. Paired t-tests are done comparing the effect of PBS alone with the effect of peptide for each of the three histological parameters: 1) area of fluid present in the middle ear; 2) number of cells in middle ear fluid; and 3) thickness of the tympanic membrane. Paired t-tests are done using these animals comparing the effect of peptide plus S. pneumoniae in one ear with S. pneumoniae alone in the opposite ear for each of the histological parameters described above.
To examine the effectiveness of the peptide to affect inflammation in vivo, twenty BALB/c mice were injected in the middle ear on one side with heat-inactivated S. pneumoniae plus PBS, and in the middle ear on the opposite side with heat-inactivated S. pneumoniae plus 10 μM peptide P13. Three days later the animals were killed, and evaluated for middle ear fluid area, infiltrating cell number, and thickness of the tympanic membrane. Disease development was defined as an increase over background controls (PBS injected ears n=18) of at least two standard deviations in two out of the three parameters quantified. A total of 7 out of 20 mice met the criteria for disease induction. […] Examination of these three parameters of inflammation for each individual mouse with disease illustrated the dramatic effect seen with a single treatment of peptide P13. […]

C3H/HeJ mice with COM = experiment: Topical administration in mouse model of chronic otitis media, ABR and otoscopic exam; assay type: in vivo
[6] = ear drop 1 μg/30 μl 24 h after bacteria
[7] = 10 μM peptide with heat-inactivated S. pneumoniae, 3 days
[8] = S. pneumoniae + peptide (about 10 μM) in middle ear, 3 days, mean ± S.D.

Q: For DIVKLTVYDCI [Peptide P13, DIVKLTVYDCI], which “cytokine secretion when peptide added several hours after initiation of TLR activation” value [1] is on record?
A: inhibition of cytokine secretion

Q: What about the toll-like receptor-dependent signaling [2] of the same sequence?
A: inhibits

Q: What about the “cellular infiltration in middle ear” value [3, 6] of the same sequence?
A: dramatically reduced

Q: What about the “residual fluid in middle ear” value [3, 6] of the same sequence?
A: dramatically reduced

Q: And the “middle ear inflammation (FIG. 2)” value ([3]; topical 1 μg 24 h after heat-killed S. pneumonia)?
A: reduces

Q: And the “number of animals with hearing loss” value ([4]; compared to PBS treatment, FIG. 3B)?
A: dramatically reduced

Q: What about the “severity of hearing impairment” value ([4]; ear drop 1 μg/30 μl, FIG. 3A) of the same sequence?
A: reduced the severity

Q: What about the “time to resolution to normal baseline hearing levels” value ([4]; ear drop 1 μg/30 μl, FIG. 3A) of the same sequence?
A: reduced the time to resolution

Q: What about the “hearing impairment (ABR)” value ([4]; ear drop 1 μg/30 μl, days 5 and 13, vs control treated) of the same sequence?
A: significantly limited

Q: What about the “hearing thresholds (FIG. 3)” value ([4]; topical 1 μg, ABR at 4, 8, 16 and 32 kHz, days 5 and 13) of the same sequence?
A: significantly improves

Q: What about the “amount of fluid in the middle ear” value [5, 7] of the same sequence?
A: significantly reduced; also recorded: dramatically reduced

Q: What about the infiltrating cell number [5, 7] of the same sequence?
A: significantly reduced; also recorded: dramatically reduced

Q: What about the “thickness of the tympanic membrane” value [5, 7] of the same sequence?
A: significantly reduced; also recorded: dramatically reduced

Q: What about the “Cell Number” value [5, 8] of the same sequence?
A: 111 ± 119

Q: And the “Tympanic Membrane Thickness” value [5, 8]?
A: 44 ± 15 microns

Q: And the “Fluid Area” value ([5]; S. pneumoniae + peptide (about 10 μM) in middle ear, 3 days, mean ± S.D. of animals with middle ear inflammation)?
A: 1486 ± 1192 microns^2

Q: And the “bacterial-induced inflammatory response in the middle ear” value ([5]; heat-inactivated S. pneumoniae into middle ears of BALB/c mice)?
A: significant reduction

Q: And the “mice demonstrating reductions in all areas of inflammation” value ([5]; mice with disease, single treatment, 10 μM)?
A: 6 of the 7

Q: What about the mucosal hypertrophy ([5]; peptide injected with the bacteria) of the same sequence?
A: reduced mucosal hypertrophy

Q: And the “middle ear inflammatory status by otoscopic exam” value (C3H/HeJ mice with COM; after peptide treatment at either time point)?
A: No change

Q: What about the “hearing improvement at a single frequency (4 kHz)” value (C3H/HeJ mice with COM; week 2 post-treatment, as compared to controls) of the same sequence?
A: ~12 db

Q: And the “improvement in hearing thresholds across all frequencies (ABR)” value (C3H/HeJ mice with COM; week 2 post-treatment, topical, C3H/HeJ mice with COM)?
A: ~40 db

Q: What about the “hearing thresholds by ABR across all four frequencies” value (C3H/HeJ mice with COM; weeks 1 and 2 post-treatment, topical) of the same sequence?
A: statistically significant improvement
